According to article PMC9325726:
These are yes or no findings as the source states them, for the method shown. Some binding calls cover weakened binding; strength is not graded here.

Target: T1, AM0627^E326A (P71-E506), inactive E326A mutant of the Akkermansia muciniphila AM0627 mucinase (Akkermansia muciniphila) (UniProt B2UPI7)
T1 sequence: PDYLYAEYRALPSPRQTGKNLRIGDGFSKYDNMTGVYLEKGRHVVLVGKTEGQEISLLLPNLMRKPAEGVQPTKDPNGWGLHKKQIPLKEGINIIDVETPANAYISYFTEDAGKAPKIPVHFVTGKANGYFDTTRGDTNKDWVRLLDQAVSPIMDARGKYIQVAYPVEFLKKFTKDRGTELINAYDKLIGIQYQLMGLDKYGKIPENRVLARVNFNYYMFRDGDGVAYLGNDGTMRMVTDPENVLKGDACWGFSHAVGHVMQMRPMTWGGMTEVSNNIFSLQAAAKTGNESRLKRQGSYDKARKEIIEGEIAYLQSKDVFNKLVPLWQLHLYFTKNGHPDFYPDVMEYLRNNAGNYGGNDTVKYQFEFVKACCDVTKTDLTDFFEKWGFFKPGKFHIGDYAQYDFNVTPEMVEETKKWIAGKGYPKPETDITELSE
Assay: crystal structure; AM0627^E326A at 15 mg/ml co-crystallised with 0.5 mM ZnCl2 and 5 mM P1; space group P2(1)2(1)2(1), two molecules in the asymmetric unit; 1.5 Å; both purified

binding: binds
Binder: TEAQTTPPPA (Galβ1-3GalNAcα1-O (T O-glycan) on Thr5 and on Thr6) [P1, PSGL-1-like bis-T glycopeptide]
